The list shows only some results of the screen, not a fair sample: it gathers tests that were run many times, whatever their T/C, doses with no T/C, and many T/C values between a quarter and a half above the control. Further doses and runs are listed elsewhere. T/C gives the treated animals as a percentage of the vehicle group. Some doses have a count of surviving animals in place of a T/C: the source files T/C as zero there, which appears to mark a toxic dose or a test without result, not a measured value. Some doses without a T/C left all or most animals alive at the check, yet need not have been tolerated: survival well below the control is almost never listed, so the zero probably covers shortened survival too. Survivors were counted at the toxicity check, usually on the fifth day, unless a day is given; later deaths do not show. Schedule codes are those of the source, read here as Q, the interval in days (D) or hours (H), X, the number of doses. Some entries were tested several times; their values stand side by side, smallest first. Some structures stand for samples that the source files as different forms (salt, stereo form or complex); doses refer to the form tested. For survival time, this PubChem deposit counts one and a half times the control or more as active, and values a quarter to a half above the control carry no call in these data; other NCI protocols may use other cut-offs. Some T/C values are followed by the survivors on the day toxicity was checked, most often the fifth; where none is given, no animal had died by that day.
Test system: BDF1 mice, P388 leukemia ip, median survival T/C
Test: NCI In Vivo Anticancer Drug Screen. Data for tumor model P388 Leukemia (intraperitoneal) in B6D2F1 (BDF1) mice
Conditions: T/C endpoint: median survival time, higher T/C = longer survival
Outline: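 In tumour-bearing mice, survival after compound treatment is set against the vehicle group and given as a quotient.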

[1] = dose: 0.5 mg/kg/injection, schedule: Q01DX009 (ip), vehicle: saline
[2] = dose: 25.0 mg/kg/injection, schedule: Q01DX009 (ip), vehicle: saline
[3] = dose: 100.0 mg/kg/injection, schedule: Q04DX003 (ip), vehicle: saline with Tween-80
[4] = dose: 200.0 mg/kg/injection, schedule: Q01DX009 (ip), vehicle: Klucel (hydroxypropylcellulose) (HPC)
[5] = dose: 400.0 mg/kg/injection, schedule: Q01DX009 (ip), vehicle: Klucel (hydroxypropylcellulose) (HPC)
[6] = dose: 400.0 mg/kg/injection, schedule: Q04DX003 (ip), vehicle: saline with Tween-80
[7] = dose: 75.0 mg/kg/injection, schedule: Q04DX003 (ip), vehicle: saline
[8] = dose: 25.0 mg/kg/injection, schedule: Q04DX003 (ip), vehicle: saline
[9] = dose: 50.0 mg/kg/injection, schedule: Q04DX003 (ip), vehicle: saline
[10] = dose: 400.0 mg/kg/injection, schedule: Q01DX009 (ip), vehicle: saline with Tween-80

Structure (SMILES): CCCN(CCC)CCCOC(=O)c1ccc(N)cc1
- survivor count (dose: 200.0 mg/kg/injection, schedule: Q04DX003 (ip), vehicle: saline): 0 of 6

Structure (SMILES): CC(C)C1=CC2=CC(=O)C3C(C)(C)CCCC3(C)C2=C(O)C1=O (centres undefined)
- survivor count (dose: 20.0 mg/kg/injection, schedule: Q01DX010 (ip), vehicle: other): 1 of 6
- survivor count (dose: 40.0 mg/kg/injection, schedule: Q01DX010 (ip), vehicle: other): 0 of 6

Structure (SMILES): C=C1[C@@H](O)[C@]2(O)OC[C@@]34[C@H]1[C@@H](OC(=O)C(C)CC)C(=O)O[C@@H]3C[C@H]1C(C)=CC(=O)[C@@H](O)[C@]1(C)[C@@H]24 (some centres undefined)
- T/C (dose: 0.06 mg/kg/injection, schedule: Q01DX009 (ip), vehicle: saline with Tween-80): 125 % of control [5 of 6 alive]
- T/C (dose: 0.12 mg/kg/injection, schedule: Q01DX009 (ip), vehicle: saline with Tween-80): 141 % of control
- T/C (dose: 0.25 mg/kg/injection, schedule: Q01DX009 (ip), vehicle: saline with Tween-80): 148 % of control [5 of 6 alive]
- T/C [1]: 134 % of control
- T/C (dose: 2.0 mg/kg/injection, schedule: Q01DX009 (ip), vehicle: saline): 145 % of control
- survivor count (dose: 4.0 mg/kg/injection, schedule: Q01DX009 (ip), vehicle: saline with Tween-80): 3 of 6
- T/C (dose: 8.0 mg/kg/injection, schedule: Q01DX009 (ip), vehicle: saline with Tween-80): 148 % of control [4 of 6 alive]

Structure (SMILES): CCOC(=O)CN1C=C(C(=O)c2cc3ccccc3[nH]2)CCC1
- survivor count [2]: 6 of 6
- survivor count (dose: 50.0 mg/kg/injection, schedule: Q01DX009 (ip), vehicle: saline): 6 of 6
- survivor count (dose: 100.0 mg/kg/injection, schedule: Q01DX009 (ip), vehicle: saline): 6 of 6

Structure (SMILES): CSc1cc(C(N)=O)c2c(N)nc(SC)nc2n1
- survivor count (dose: 200.0 mg/kg/injection, schedule: Q01DX001 (ip), vehicle: saline with Tween-80): 6 of 6

Structure (SMILES): CCOC(=O)C1C(=O)C(CN(CCCl)CCCl)C(=O)C(C(=O)OCC)C1c1ccc(O)cc1 (centres undefined)
- T/C (dose: 40.0 mg/kg/injection, schedule: Q04DX003 (ip), vehicle: Klucel (hydroxypropylcellulose) (HPC)): 135 % of control
- survivor count (dose: 50.0 mg/kg/injection, schedule: Q01DX009 (ip), vehicle: Klucel (hydroxypropylcellulose) (HPC)): 6 of 6
- survivor count (dose: 100.0 mg/kg/injection, schedule: Q01DX009 (ip), vehicle: Klucel (hydroxypropylcellulose) (HPC)): 6 of 6
- T/C (dose: 100.0 mg/kg/injection, schedule: Q04DX003 (ip), vehicle: Klucel (hydroxypropylcellulose) (HPC)): 145 % of control
- survivor count [3]: 5 of 6
- survivor count [4]: 0 of 6
- survivor count (dose: 200.0 mg/kg/injection, schedule: Q04DX003 (ip), vehicle: saline with Tween-80): 5 of 6
- survivor count [5]: 0 of 6
- survivor count [6]: 5 of 6

Structure (SMILES): CC12CCC3C(CCC4=CC(=O)CCC43C)C1CCC(=O)O2 (centres undefined)
- survivor count [4]: 2 of 6
- survivor count [5]: 0 of 6

Structure (SMILES): CC1=[N+](C)C(C)(C)CC(C)O1 (centres undefined)
- survivor count (dose: 11.0 mg/kg/injection, schedule: Q01DX009 (ip), vehicle: saline): 6 of 6
- T/C [2]: 127 % of control
- survivor count (dose: 90.0 mg/kg/injection, schedule: Q01DX009 (ip), vehicle: saline): 0 of 6
- survivor count (dose: 135.0 mg/kg/injection, schedule: Q01DX009 (ip), vehicle: saline): 0 of 6

Structure (SMILES): CC1(C)N=C(N)N=C(N)N1c1ccc(OCCOc2ccc(S(=O)(=O)F)cc2)c(Cl)c1
- T/C (dose: 33.0 mg/kg/injection, schedule: Q04DX003 (ip), vehicle: saline with Tween-80): 137 % of control
- survivor count [3]: 6 of 6
- survivor count (dose: 200.0 mg/kg/injection, schedule: Q01DX009 (ip), vehicle: saline with Tween-80): 3 of 6
- survivor count [6]: 0 of 6

Structure (SMILES): O=S(=O)(O)c1ccc(-c2ccc(S(=O)(=O)O)cc2)cc1 (tested in a mixture with another compound)
- survivor count [7]: 6 of 6

Structure (SMILES): O=C(c1ccc(C(=O)N2CC2)cc1)N1CC1
- survivor count (dose: 10.0 mg/kg/injection, schedule: Q01DX009 (ip), vehicle: saline with Tween-80): 6 of 6

Structure (SMILES): COc1cc(NCc2ccc3nc(N)nc(N)c3c2C)cc(OC)c1OC
- T/C (dose: 2.5 mg/kg/injection, schedule: Q01DX009 (ip), vehicle: sodium bicarbonate): 148 % of control
- T/C (dose: 25.0 mg/kg/injection, schedule: Q01DX009 (oral), vehicle: sodium bicarbonate): 130 % of control
- survivor count (dose: 80.0 mg/kg/injection, schedule: Q01DX009 (ip), vehicle: sodium bicarbonate): 6 of 6
- survivor count (dose: 100.0 mg/kg/injection, schedule: Q01DX009 (ip), vehicle: saline with Tween-80): 10 of 10
- survivor count (dose: 200.0 mg/kg/injection, schedule: Q01DX009 (oral), vehicle: sodium bicarbonate): 6 of 6
- survivor count (dose: 400.0 mg/kg/injection, schedule: Q01DX009 (oral), vehicle: sodium bicarbonate): 6 of 6

Structure (SMILES): CC1(C)N=C(N)N=C(N)N1c1ccc(CCCCc2ccc(S(=O)(=O)F)cc2)c(Cl)c1
- T/C (dose: 0.22 mg/kg/injection, schedule: Q01DX009 (ip), vehicle: saline): 128 % of control
- T/C (dose: 0.33 mg/kg/injection, schedule: Q01DX009 (ip), vehicle: saline): 130 % of control
- T/C [1]: 145 % of control
- T/C (dose: 0.66 mg/kg/injection, schedule: Q01DX009 (ip), vehicle: saline): 146 % of control
- survivor count (dose: 4.4 mg/kg/injection, schedule: Q01DX009 (ip), vehicle: saline): 6 of 6
- survivor count (dose: 6.6 mg/kg/injection, schedule: Q01DX009 (ip), vehicle: saline): 6 of 6
- survivor count (dose: 10.0 mg/kg/injection, schedule: Q01DX009 (ip), vehicle: saline): 6 of 6
- survivor count (dose: 15.0 mg/kg/injection, schedule: Q01DX009 (ip), vehicle: saline): 6 of 6
- T/C (dose: 22.0 mg/kg/injection, schedule: Q04DX003 (ip), vehicle: saline): 127 and 141 % of control
- T/C [8]: 127 % of control
- T/C (dose: 33.0 mg/kg/injection, schedule: Q04DX003 (ip), vehicle: saline): 133 and 136 % of control
- T/C [9]: 136 and 145 % of control
- survivor count (dose: 75.0 mg/kg/injection, schedule: Q01DX009 (ip), vehicle: saline): 6 of 6
- T/C [7]: 127 % of control

Structure (SMILES): CC(=O)[C@H]1CC[C@H]2[C@@H]3CCC4=CC(=O)[C@H](C)C[C@]4(C)[C@@]3(F)C(=O)C[C@]12C
- survivor count [10]: 6 of 6

Structure (SMILES): CCCCCCCCCCCCCCCCS(=O)(=O)N/N=C/C(=O)O
- T/C (dose: 12.5 mg/kg/injection, schedule: Q01DX009 (ip), vehicle: other): 129 % of control
- T/C (dose: 25.0 mg/kg/injection, schedule: Q01DX009 (ip), vehicle: other): 125 and 131 % of control
- T/C (dose: 50.0 mg/kg/injection, schedule: Q01DX009 (ip), vehicle: other): 140 and 145 % of control
- survivor count (dose: 100.0 mg/kg/injection, schedule: Q01DX009 (ip), vehicle: other): 4 of 6 and 6 of 6
- survivor count (dose: 200.0 mg/kg/injection, schedule: Q01DX009 (ip), vehicle: other): 0 of 6 and 2 of 6
- survivor count (dose: 400.0 mg/kg/injection, schedule: Q01DX009 (ip), vehicle: other): 0 of 6

Structure (SMILES): Cc1ccc(C(O)(CS(C)=O)c2ccco2)cc1 (centres undefined)
- survivor count (dose: 200.0 mg/kg/injection, schedule: Q01DX009 (ip), vehicle: saline + alcohol): 5 of 6

Structure (SMILES): C[n+]1ccc(/C=N/O)cc1
- survivor count [8]: 3 of 6
- survivor count [9]: 1 of 6
- survivor count (dose: 400.0 mg/kg/injection, schedule: Q04DX003 (ip), vehicle: saline): 6 of 6

Structure (SMILES): CC(C)(O)c1cccc(F)c1
- T/C [10]: 135 % of control

Structure (SMILES): C[N+](C)(CC(=O)Nc1ccc(Cl)c(Cl)c1)CC(=O)c1ccc(Cl)c(Cl)c1
- survivor count (dose: 100.0 mg/kg/injection, schedule: Q04DX003 (ip), vehicle: saline sonified): 6 of 6
- survivor count (dose: 200.0 mg/kg/injection, schedule: Q04DX003 (ip), vehicle: saline sonified): 6 of 6
